Data: PubChem BioAssay AID1347423 (Functional Genomics Laboratory (NCATS/FGL), 2020)
Hit rate of the full screen: of about 52,000 sequences, about 210 (0.4%) were called active.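 Rule for the calls: active = gene whose silencing raises cell survival under the drug, median off-target-corrected z-score across its silencing RNAs 2 or more; inactive = the rest.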 The list shows a part of the results.

Test: Resistance to Poly (ADP-Ribose) Polymerase inhibitor: Gene Identification via Genome-wide siRNA Screen
Details: mouse BRCA2 R2336H ES cells, olaparib, CellTiter-Glo viability; stronger effect = higher value
How it was run: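 Genome-wide siRNA screen (3 siRNAs/gene, 20 nM) in mouse ES cells carrying hypomorphic BRCA2 R2336H; olaparib 500 nM added 48 h post-transfection, CellTiter-Glo viability 72 h later. Normalized to plate-median negative control; MAD z-scores, gene median, seed-adjusted.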
For CCACUUUCAACCUGACCGUTT against Pcdhac2, the z-score was inactive: -0.46. For CGUGAUUUCAUGCUGUGGCTT against Tal2, the z-score was inactive: -1.53. In the case of GACACCAAAGUCUUUGAGUTT against Olfr315, the z-score is reported as inactive: -0.867. In the case of GCUGAUGUUAUUUAACAUGTT against Tas2r124, the z-score is reported as inactive: 0.717. For GUAAAUCCAUCUCUCUAGCTT against Cyp3a16, the z-score was inactive: -0.801. With GGCCCAAAAACAGGUAAAGTT against Adrb1 the z-score was inactive: 2.2. In the case of “GAGUCACAUGUACCUGGCCTT against 9930021D14Rik”, the z-score is reported as inactive: 0.481. With GCAGAGAUUUAUGAAGCAUTT against Tbp the z-score was inactive: -0.312. In the case of GGAAUCGCUGUUAUAGUUATT against Spg4, the z-score is reported as inactive: -0.488. In the case of CGUAGCUUAAUCUGGCAGATT against Aldh1a7, the z-score is reported as inactive: -1.21. In the case of GGAGUAGCUGUUCUAAUUGTT against Scamp5, the z-score is reported as inactive: -0.76. In the case of GGACUUCAUGACCACCUAUTT against Ctsf, the z-score is reported as inactive: -0.667. For GGAUAUCAUUGUGCCCACUTT against Olfr920, the z-score was inactive: -0.375. In the case of GGAGAUAUCUGGUAUACCCTT against Bace2, the z-score is reported as inactive: 0.124. With “CUCAGGAAAUAGGCCCAGATT against A530064D06Rik” the z-score was inactive: 0.849. For GGAACUGGAGAAGAAAUUUTT against Sp100, the z-score was inactive: 0.223. In the case of GCAGCUAGUAUCCAGGCUATT against Ifrd1, the z-score is reported as inactive: 0.666. For GAGAAACCUGCCUCAUCUCTT against Spata3, the z-score was inactive: -0.577. In the case of GCUUUGGAACCUCCGAAUGTT against Ddb2, the z-score is reported as inactive: -0.489. In the case of “CCCACUUAUAUAUGUAGUUTT against 2410187C16Rik”, the z-score is reported as inactive: -0.391. With GGCAGACAACGUGUCACCUTT against Aldh1a3 the z-score was inactive: -0.741. In the case of GGGUAUGAGCAUAAAAUAATT against Il16, the z-score is reported as inactive: -0.692. In the case of GCAUUGAGAUGAGAGCCUATT against BC022133, the z-score is reported as inactive: -0.954. With “GGUCUUCUAAGAAAUUUUGTT against 5430425K04Rik” the z-score was inactive: 0.912. For GGGACUGUAAUGUUGACACTT against Olfr560, the z-score was inactive: 0.851. With “GGUACGAGUGAUCGUACUUTT against 5330438I03Rik” the z-score was inactive: 0.1. In the case of GCAUCUAAGAAGCUGAAAATT against Mmrp19, the z-score is reported as inactive: 2.56. With GCCCAAUCAAAAAAUGGUGTT against Zyx the z-score was inactive: 0.171. With “GGAGAUUUGAGUCCUCUAGTT against B830013J05Rik” the z-score was inactive: -0.654. In the case of UUUUUUCUGGUUCACUUCATT against Olfr177, the z-score is reported as inactive: -0.594. In the case of GGUGUAGGAAGAAUGUUUATT against Pfdn1, the z-score is reported as inactive: -0.127. With “GUGAACAACAUCCAAGCGATT against 1110001P11Rik” the z-score was inactive: 0.931. In the case of “GCGAAUUUUUGACACCUAUTT against 9830169G11Rik”, the z-score is reported as inactive: 0.626. In the case of GCUGUGUGACCAGCUGUUGTT against Krtap9-1, the z-score is reported as inactive: 1.03. In the case of GGAAGACGUAAAGCUUUCUTT against Olfr1006, the z-score is reported as inactive: 0.568. In the case of CCAAAGGUUACCAGGAAGCTT against Pcsk4, the z-score is reported as inactive: -0.169. For GCGAAAUCCUGGGCUACUCTT against Dyrk4, the z-score was inactive: 1.13. In the case of GGGAUGUCAGCAAUCUAAATT against Pmfbp1, the z-score is reported as inactive: -0.697. For GGAUCACUCUAAUUCAGAUTT against Fcamr, the z-score was inactive: -0.191. For GGAUCACCAGACCUUUUUCTT against St7l, the z-score was inactive: -0.848. For GCAAAUAAUGAGGUCCAGATT against Rbms2, the z-score was inactive: -0.236. In the case of “GGUAUCCUGAGUUUCAGCCTT against E230015B07Rik”, the z-score is reported as inactive: 0.933. In the case of “CCUACAAAAUCUUUCCCAATT against 1300013B24Rik”, the z-score is reported as inactive: -0.491. For “CCAGCUAUGAAUCAGAAUGTT against B230209C24Rik”, the z-score was inactive: 0.623. In the case of CCUCAGAUUGCCAAAAGUUTT against Tnip1, the z-score is reported as inactive: -1.02. In the case of “GCUGAGAAUGUGGUAACAGTT against 4930521A18Rik”, the z-score is reported as inactive: -2.22. For GGUCCAAGUAAUGAACUCATT against Olfr155, the z-score was inactive: -0.9. With AUUUUGGUGGAGGUAACUATT against Hnrpa3 the z-score was inactive: -0.899. In the case of GGCAUGGAAGGAGGUGCUUTT against Nedl2, the z-score is reported as inactive: 4.53. For “GGCUGACCACCAAAUUGUUTT against 2310043L02Rik”, the z-score was inactive: -3.3. In the case of “GGCACACUUGUGUAAUAUUTT against D13Wsu177e”, the z-score is reported as inactive: -1.36. For CUUCGUAGCAGUCAUCCUUTT against Bcl2, the z-score was inactive: 1.3. In the case of GGGACUGUCUCCAAGACUCTT against Nkx2-9, the z-score is reported as inactive: -2.11. In the case of GGAAAGUGAUCCAGAAAUGTT against Olfr1026, the z-score is reported as inactive: 0.14. In the case of GGUAAAAUACCUAAGAACCTT against Pnma2, the z-score is reported as inactive: 0.923. With CGAAGCUGGUUUACCAAAATT against Gna14 the z-score was inactive: -2.28. With GGAUGGGUCCAUUGAGCCATT against Lrpap1 the z-score was inactive: -3.34. For GGGAGGAAGGAAGAGUAUUTT against Itga4, the z-score was inactive: 0.225. In the case of “GGAGGAAUUUCAAAUACUATT against A530032D15Rik”, the z-score is reported as inactive: -0.553. For GGACAUGUGUGCAAAUCCATT against Slc35f3, the z-score was inactive: 0.558. In the case of “GCAGACAGAAGAACACCAGTT against 1700024G13Rik”, the z-score is reported as inactive: 1.12. In the case of GGUGCUUCCAACUUCACAGTT against Bcorl1, the z-score is reported as inactive: -0.782. For “GGACUUCAGCAAAUCCAAGTT against 4931415M17”, the z-score was inactive: -0.428. In the case of GCAGUCACCUUCAAAAAAATT against BC018101, the z-score is reported as inactive: 0.903. With GGAGCAAGAUGUUUCUGAATT against BC021790 the z-score was inactive: 0.393. With “GGAGUUAUUUCCUAGAACATT against 2510004L01Rik” the z-score was inactive: 0.339. With GCUGGCACAAUCUUUCAAATT against Cdh8 the z-score was inactive: 0.437. In the case of GCUUGGAUUGCCCUGAUUUTT against Olfr640, the z-score is reported as inactive: -1.02. With CCAGUUAAGGCCAUUGUAATT against Jundm2 the z-score was inactive: -1.16. In the case of GGCCAUUGGACACAGAAUCTT against Rpl35a, the z-score is reported as inactive: -3.24. With CCAUGUCAGUAUCUCAUGUTT against Pdc the z-score was inactive: -0.0468. With “CGGACUGUGUGUGCCAAGUTT against 2410075D05Rik” the z-score was inactive: -2.14. In the case of GCUUUGGCUCAAAGCACGUTT against Mcm3, the z-score is reported as inactive: -0.0953. With GCCGAUGUGUUAGUGGCUATT against Ddx28 the z-score was inactive: -0.644. For GGGUCCUCUGCUCAUUUGGTT against Wdr17, the z-score was inactive: -0.669. With “GCUAGAAAAAAAUCAGUUGTT against D3Ertd194e” the z-score was inactive: 0.309. For “CCAAAAUUAAUGUGACAGATT against 2210408I21Rik”, the z-score was inactive: 0.33. With GCCUUUCAUGGAUUAACCUTT against Mlze the z-score was inactive: 0.618. With GGUCCACUUAGUGGCUUAATT against Atp5f1 the z-score was inactive: -1.51. In the case of GGAGUUAAAAGAUGUAAUCTT against Pip5k3, the z-score is reported as inactive: 0.249. With GGAUUUCUUAGCCAUGUUCTT against Lpxn the z-score was inactive: -0.208. For “GGGCAAACCCAAGACCUUATT against 4933405A16Rik”, the z-score was inactive: -0.423. With CCAAACAUAGAUGUUACUGTT against Ace2 the z-score was inactive: 0.24. For GGCCAUGGUGGCGUGUUAUTT against Egln2, the z-score was inactive: 0.716. For CGUUGUGUAUAGGUCUUUATT against M6pr, the z-score was inactive: -1.03. With “GGGCUGAUGUGGGCUAAAUTT against 1110001E17Rik” the z-score was active: 4.07. For GCUUACUCUGUGGAUCCAGTT against LOC432436, the z-score was inactive: -1.43. In the case of GGAGAUGUUACACAAAAUCTT against 4-Sep, the z-score is reported as inactive: 0.723. In the case of “GAAGAAGCCUACAGUGACCTT against D5Ertd689e”, the z-score is reported as inactive: 0.637. For GUGACCAGCUAUAAUCAGATT against Ins1, the z-score was inactive: -0.393. In the case of GGUCCACACUUUCUGUCUUTT against Mkks, the z-score is reported as inactive: 0.372. With CGGGCGUGUGUUUGAAAAGTT against Cpox the z-score was inactive: -0.0416. With GGUUAAAGGGAAUUUUAUGTT against Zcchc14 the z-score was inactive: -0.472. For GGAGGAAGAGGUCAUCUUCTT against Olfr1378, the z-score was inactive: 0.947. With GGGAUUAUUCAGUCUAUGUTT against Lgals12 the z-score was inactive: -1.31. For GCAGAUCCGAAUCAAUGAGTT against Ptk9l, the z-score was inactive: 0.0367. For GGUAAUGAGACGCGGUUUATT against Ina, the z-score was inactive: 0.136. For GGAAAAGAUUUUUCUCUGATT against Usp26, the z-score was inactive: -0.291. For GGUGCUUUUACAUCUCACATT against Cd72, the z-score was inactive: 0.0574. With GGAAGGAAGAGAUGAAGAATT against Cetn1 the z-score was inactive: -1.45. For CCCUAUAUAUCCACAUGUUTT against Mc3r, the z-score was inactive: -1.72. For GCUUAUACCUCCAUCAUCGTT against Cops8, the z-score was inactive: -1.87. With GGCUAACGAAGAAUAUCAATT against Tusc3 the z-score was inactive: 0.847. In the case of GCACCACUAUUUUAGCAUATT against Rap1b, the z-score is reported as inactive: -0.346.
